Experimental data: the supplement of paper PMC11732987, “Enantioselective OTUD7B fragment discovery through chemoproteomics screening and high-throughput optimisation” (Communications Chemistry, 2025)
Some of the results follow. The data scatter; read single values as rough.

By UniProt entry, the sequences of proteins in these tests, tags left out. Where a name states a change or a piece, a line headed by the entry shows the natural chain unless it says otherwise. Residues count along the entry.
UniProt Q8TEU7, 1363-1383: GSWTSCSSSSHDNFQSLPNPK
UniProt Q9BVS4, 481-502: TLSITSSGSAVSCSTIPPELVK
UniProt P20936: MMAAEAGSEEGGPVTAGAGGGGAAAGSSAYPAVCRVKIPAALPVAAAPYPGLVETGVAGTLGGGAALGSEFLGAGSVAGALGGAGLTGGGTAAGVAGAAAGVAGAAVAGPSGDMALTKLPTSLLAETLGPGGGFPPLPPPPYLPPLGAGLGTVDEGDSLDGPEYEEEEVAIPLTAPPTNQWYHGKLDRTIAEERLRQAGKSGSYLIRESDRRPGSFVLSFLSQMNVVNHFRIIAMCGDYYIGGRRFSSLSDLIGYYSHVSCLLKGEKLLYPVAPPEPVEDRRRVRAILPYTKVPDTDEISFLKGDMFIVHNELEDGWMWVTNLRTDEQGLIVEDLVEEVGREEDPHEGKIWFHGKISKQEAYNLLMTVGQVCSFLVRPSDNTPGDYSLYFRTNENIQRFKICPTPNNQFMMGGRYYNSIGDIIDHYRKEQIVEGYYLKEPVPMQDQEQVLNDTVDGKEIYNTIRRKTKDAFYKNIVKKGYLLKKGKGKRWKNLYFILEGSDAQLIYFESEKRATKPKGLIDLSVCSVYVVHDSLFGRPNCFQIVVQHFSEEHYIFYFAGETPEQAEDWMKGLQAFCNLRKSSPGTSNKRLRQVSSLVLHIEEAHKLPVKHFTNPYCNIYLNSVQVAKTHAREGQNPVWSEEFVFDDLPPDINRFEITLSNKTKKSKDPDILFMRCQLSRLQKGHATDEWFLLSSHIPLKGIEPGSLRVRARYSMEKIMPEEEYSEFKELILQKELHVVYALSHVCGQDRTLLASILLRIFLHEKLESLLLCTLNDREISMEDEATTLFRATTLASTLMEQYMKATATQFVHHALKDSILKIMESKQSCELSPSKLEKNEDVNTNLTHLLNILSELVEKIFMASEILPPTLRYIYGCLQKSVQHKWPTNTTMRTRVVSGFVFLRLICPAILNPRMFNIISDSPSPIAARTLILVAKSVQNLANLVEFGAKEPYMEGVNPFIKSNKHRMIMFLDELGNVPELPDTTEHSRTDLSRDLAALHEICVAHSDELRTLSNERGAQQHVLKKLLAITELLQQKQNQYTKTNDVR
UniProt O75792: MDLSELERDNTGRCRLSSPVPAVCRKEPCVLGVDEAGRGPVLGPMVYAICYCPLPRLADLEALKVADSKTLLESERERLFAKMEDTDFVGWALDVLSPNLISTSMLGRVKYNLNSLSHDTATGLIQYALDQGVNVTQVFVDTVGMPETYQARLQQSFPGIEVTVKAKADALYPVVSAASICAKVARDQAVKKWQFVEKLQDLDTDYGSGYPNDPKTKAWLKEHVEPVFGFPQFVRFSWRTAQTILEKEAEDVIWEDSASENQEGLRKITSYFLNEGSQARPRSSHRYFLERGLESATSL
UniProt P49792, whole entry, looked up: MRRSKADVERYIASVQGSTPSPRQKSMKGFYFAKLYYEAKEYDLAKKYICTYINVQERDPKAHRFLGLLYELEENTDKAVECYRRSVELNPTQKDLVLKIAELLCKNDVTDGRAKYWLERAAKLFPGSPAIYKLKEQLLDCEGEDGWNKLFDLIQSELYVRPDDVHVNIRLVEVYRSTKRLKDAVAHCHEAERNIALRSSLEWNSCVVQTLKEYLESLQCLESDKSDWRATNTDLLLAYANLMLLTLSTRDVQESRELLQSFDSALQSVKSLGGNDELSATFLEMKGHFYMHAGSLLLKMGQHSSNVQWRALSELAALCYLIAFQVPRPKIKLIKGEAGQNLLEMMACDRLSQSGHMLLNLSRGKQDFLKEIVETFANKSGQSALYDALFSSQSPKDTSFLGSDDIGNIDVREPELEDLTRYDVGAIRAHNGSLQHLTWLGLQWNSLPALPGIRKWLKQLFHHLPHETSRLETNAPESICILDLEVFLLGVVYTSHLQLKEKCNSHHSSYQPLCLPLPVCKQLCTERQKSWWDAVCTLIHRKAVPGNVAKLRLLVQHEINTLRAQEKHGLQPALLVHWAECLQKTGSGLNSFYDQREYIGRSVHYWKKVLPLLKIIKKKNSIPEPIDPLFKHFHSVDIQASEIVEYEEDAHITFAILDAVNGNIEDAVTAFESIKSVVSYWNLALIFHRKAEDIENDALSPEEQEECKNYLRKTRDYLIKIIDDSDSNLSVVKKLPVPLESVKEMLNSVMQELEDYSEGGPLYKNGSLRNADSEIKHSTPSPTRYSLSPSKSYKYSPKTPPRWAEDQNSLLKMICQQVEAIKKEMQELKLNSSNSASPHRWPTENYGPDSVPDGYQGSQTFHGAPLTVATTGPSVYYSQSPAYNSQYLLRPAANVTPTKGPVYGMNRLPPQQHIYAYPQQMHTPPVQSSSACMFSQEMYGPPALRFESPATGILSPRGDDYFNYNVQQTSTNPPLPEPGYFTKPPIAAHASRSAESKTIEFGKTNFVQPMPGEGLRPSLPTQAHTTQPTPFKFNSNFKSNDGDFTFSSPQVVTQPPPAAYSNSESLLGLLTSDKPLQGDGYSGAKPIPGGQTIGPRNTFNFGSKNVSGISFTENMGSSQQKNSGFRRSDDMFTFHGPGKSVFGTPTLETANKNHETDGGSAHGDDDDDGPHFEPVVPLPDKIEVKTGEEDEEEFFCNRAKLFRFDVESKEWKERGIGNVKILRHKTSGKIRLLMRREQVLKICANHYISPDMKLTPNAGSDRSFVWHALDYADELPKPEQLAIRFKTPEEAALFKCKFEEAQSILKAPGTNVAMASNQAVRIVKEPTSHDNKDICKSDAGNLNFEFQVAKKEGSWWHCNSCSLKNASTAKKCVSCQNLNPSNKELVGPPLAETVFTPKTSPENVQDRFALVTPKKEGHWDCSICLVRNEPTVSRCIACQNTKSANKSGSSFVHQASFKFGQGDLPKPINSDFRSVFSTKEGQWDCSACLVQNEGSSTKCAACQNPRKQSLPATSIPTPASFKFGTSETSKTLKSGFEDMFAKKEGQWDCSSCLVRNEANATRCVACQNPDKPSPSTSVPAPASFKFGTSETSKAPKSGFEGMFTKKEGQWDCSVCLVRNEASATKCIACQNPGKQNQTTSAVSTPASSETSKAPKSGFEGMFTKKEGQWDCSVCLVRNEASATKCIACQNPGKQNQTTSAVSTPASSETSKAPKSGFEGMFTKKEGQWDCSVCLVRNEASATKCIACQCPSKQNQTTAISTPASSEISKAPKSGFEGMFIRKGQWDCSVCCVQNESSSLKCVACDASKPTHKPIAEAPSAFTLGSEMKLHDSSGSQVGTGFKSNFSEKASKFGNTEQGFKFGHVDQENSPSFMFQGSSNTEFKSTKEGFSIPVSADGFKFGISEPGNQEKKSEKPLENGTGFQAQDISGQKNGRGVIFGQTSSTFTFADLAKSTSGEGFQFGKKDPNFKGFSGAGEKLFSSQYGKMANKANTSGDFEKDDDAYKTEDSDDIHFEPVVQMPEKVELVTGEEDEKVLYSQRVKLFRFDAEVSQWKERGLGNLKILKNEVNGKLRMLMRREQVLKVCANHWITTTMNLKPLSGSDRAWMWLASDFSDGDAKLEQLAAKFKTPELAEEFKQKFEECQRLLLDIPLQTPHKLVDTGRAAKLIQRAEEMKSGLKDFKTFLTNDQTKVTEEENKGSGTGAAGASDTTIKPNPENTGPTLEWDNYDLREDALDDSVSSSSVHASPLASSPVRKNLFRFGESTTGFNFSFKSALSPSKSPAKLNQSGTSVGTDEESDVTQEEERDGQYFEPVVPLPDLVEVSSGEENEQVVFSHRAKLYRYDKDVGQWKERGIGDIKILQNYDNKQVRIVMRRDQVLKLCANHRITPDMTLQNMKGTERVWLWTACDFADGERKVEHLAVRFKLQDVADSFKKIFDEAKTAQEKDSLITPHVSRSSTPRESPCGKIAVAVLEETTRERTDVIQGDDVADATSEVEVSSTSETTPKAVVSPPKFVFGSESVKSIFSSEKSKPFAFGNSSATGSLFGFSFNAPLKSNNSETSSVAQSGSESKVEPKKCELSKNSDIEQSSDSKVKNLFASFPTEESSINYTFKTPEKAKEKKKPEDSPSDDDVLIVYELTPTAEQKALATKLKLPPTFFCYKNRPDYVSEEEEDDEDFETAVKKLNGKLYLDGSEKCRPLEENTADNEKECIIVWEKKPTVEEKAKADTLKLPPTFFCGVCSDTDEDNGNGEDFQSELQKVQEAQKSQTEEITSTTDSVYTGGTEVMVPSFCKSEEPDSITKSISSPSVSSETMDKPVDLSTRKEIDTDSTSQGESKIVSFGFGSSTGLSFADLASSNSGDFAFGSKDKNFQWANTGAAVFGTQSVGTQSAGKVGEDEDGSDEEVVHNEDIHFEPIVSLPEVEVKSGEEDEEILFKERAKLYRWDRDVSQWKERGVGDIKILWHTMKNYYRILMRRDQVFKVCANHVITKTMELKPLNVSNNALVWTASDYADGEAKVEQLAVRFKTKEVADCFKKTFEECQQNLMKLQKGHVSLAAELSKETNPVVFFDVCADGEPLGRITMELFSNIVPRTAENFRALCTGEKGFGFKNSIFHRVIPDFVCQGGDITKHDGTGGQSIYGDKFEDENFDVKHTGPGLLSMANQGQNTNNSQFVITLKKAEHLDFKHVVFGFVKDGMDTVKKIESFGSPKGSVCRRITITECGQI
UniProt O94762: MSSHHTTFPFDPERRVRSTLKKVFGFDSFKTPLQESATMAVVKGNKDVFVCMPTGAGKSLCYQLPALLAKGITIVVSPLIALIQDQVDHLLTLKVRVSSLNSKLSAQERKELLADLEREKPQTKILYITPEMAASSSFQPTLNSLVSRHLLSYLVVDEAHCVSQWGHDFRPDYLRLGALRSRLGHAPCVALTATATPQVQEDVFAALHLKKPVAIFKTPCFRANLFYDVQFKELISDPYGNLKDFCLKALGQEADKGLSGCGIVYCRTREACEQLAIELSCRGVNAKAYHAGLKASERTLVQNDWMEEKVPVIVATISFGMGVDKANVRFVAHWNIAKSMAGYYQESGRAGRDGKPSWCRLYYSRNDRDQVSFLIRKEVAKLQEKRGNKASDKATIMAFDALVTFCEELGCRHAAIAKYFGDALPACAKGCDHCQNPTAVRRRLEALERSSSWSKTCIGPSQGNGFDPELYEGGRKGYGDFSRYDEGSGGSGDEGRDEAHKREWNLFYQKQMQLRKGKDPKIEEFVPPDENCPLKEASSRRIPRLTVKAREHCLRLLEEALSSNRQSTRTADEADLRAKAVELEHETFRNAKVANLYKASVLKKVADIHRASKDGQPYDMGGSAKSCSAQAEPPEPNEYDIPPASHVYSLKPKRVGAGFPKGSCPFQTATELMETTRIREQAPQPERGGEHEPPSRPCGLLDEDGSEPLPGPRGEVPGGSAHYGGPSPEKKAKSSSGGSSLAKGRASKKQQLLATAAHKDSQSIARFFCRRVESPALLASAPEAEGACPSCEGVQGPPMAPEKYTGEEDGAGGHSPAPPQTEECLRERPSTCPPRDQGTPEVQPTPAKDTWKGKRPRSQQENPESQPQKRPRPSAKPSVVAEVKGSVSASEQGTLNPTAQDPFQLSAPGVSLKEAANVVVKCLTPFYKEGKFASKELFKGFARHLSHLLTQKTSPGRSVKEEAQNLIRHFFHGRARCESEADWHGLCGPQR
UniProt Q5T160, 295-315: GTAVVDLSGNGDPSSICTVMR
UniProt Q96DM3: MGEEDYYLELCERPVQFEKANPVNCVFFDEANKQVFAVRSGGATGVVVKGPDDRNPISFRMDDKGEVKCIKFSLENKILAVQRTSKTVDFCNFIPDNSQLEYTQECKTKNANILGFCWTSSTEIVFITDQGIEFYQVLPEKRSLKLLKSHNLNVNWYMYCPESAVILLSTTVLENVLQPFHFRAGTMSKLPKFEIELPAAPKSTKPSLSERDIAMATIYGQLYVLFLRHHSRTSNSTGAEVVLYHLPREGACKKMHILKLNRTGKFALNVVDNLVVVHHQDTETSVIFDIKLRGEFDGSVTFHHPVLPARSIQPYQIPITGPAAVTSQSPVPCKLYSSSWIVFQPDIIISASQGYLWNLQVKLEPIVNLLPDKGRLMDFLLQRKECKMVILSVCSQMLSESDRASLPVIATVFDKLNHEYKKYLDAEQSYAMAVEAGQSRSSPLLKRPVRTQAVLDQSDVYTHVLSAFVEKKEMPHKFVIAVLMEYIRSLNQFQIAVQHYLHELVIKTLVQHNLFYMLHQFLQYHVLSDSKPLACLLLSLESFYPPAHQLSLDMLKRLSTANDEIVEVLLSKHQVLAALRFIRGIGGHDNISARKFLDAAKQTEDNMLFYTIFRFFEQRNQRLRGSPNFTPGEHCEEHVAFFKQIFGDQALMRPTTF
UniProt Q96S59, 587-606: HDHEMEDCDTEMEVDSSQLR
UniProt Q9HBH0: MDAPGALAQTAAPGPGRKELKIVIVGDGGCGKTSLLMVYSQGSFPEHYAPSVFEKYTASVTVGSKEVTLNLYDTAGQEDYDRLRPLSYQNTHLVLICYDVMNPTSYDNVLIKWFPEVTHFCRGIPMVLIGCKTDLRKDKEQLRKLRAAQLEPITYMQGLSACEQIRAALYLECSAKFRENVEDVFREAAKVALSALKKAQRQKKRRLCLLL
UniProt Q4ADV7, 408-429: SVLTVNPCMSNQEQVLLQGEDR

The targets below were run with ClCC(=O)N[C@H]1CCCc2ccccc12 (assay: log2 mean competition ratio of IA-DTB cysteine labelling (DMSO/compound) (log2 ratio); higher = stronger cysteine engagement by compound). Conditions: 50 µM; treatment time: 4 h; cell line lysate: HEK293T.
Experimental: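 IA-DTB competitive cysteine chemoproteomics in HEK293T RIPA lysate. Lysates were treated with compound 29 or 30 at 50 or 200 µM for 4 h, then IA-DTB (500 µM, 1 h), trypsin-digested, NeutrAvidin-enriched and analysed by diaPASEF. Competition ratio = intensity DMSO / intensity compound (n=4 treated, n=64 DMSO); binding: mean log2 CR ≥ 1 and p ≤ 0.05 plus QC filters. Target is the cysteine site.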

Target	log2 mean competition ratio
RANBP6 C188 (UniProt O60518)	-0.486
RAPGEF6 C1368 (UniProt Q8TEU7)	-0.0611
RIOK2 C493 (UniProt Q9BVS4)	0.299
RIPOR1 C945 (UniProt Q6ZS17)	-0.126
RASA1 C876 (UniProt P20936)	0.484
RHOBTB3 C155 (UniProt O94955)	0.115
RNASEH2A C24 (UniProt O75792)	0.293
RAF1 C81 (UniProt P04049)	1.11

Same assay, conditions: 200 µM; treatment time: 4 h; cell line lysate: HEK293T

Target	log2 mean competition ratio
RANBP2 C3122 (UniProt P49792)	-0.165
RANBP2 C2710 (UniProt P49792)	0.332
RASA1 C906 (UniProt P20936)	-0.425
RANBP2 C815 (UniProt P49792)	-0.215
RECQL5 C427 (UniProt O94762)	0.0227
RARS2 C311 (UniProt Q5T160)	-0.0166
RMC1 C11 (UniProt Q96DM3)	-0.0939
RBPJ C180 (UniProt Q06330)	-0.0983
RIPK2 C324 (UniProt O43353)	0.202
RBM27 C49 (UniProt Q9P2N5)	0.0751
RAF1 C588 (UniProt P04049)	0.0888
RBM4 C31 (UniProt Q9BWF3)	0.033
RARA C148	0.0228
RELCH C605 (UniProt Q9P260)	-0.393
RARS2 C74 (UniProt Q5T160)	-0.181
RANBP9 C594 (UniProt Q96S59)	0.256
RHOF C30 (UniProt Q9HBH0)	0.2
RIC1 C415 (UniProt Q4ADV7)	-0.179
RARA C444	0.309

Target	log2 mean competition ratio
RB1 C278 (UniProt P06400)	0.205
RCL1 C171	-0.00486
RBM4 C89 (UniProt Q9BWF3)	-0.0678
RARS1 C502	0.0172
RHOT1 C175 (UniProt Q8IXI2)	-0.0663
RFC4 C141 (UniProt P35249)	-0.129
RCC2 C144 (UniProt Q9P258)	-0.0242
RHOF C173 (UniProt Q9HBH0)	-0.116
RFX5 C107 (UniProt P48382)	0.158
RBBP7 C97	-0.15
RANBP6 C188 (UniProt O60518)	-0.0395
RAPGEF6 C1368 (UniProt Q8TEU7)	0.517
RIOK2 C493 (UniProt Q9BVS4)	-0.33
RIPOR1 C945 (UniProt Q6ZS17)	-0.00629
RASA1 C876 (UniProt P20936)	-0.113
RHOBTB3 C155 (UniProt O94955)	0.204
RNASEH2A C24 (UniProt O75792)	0.156
RAF1 C81 (UniProt P04049)	-0.0954
